± gives the standard deviation of the averaged measurements. Over roughly 1,600 compounds, “normalized intracellular growth (luminescence, IQM-normalized) in RAW264.7 macrophages” has its median near 1; the lowest 2% begin near 0.43. The list shows a part of the results.
Test system: Salmonella enterica serovar Typhimurium SL1344
Experiment: normalized intracellular growth (luminescence, IQM-normalized) in RAW264.7 macrophages (fraction of plate interquartile mean); higher = more bacterial growth (less inhibition)
Conditions: 10 µM

Row | Structure (SMILES) | normalized intracellular growth (time point: T3 (3 h)) | normalized intracellular growth (time point: Tfinal (~6 h))
1 | Cc1nc(-c2ccc(OCC(C)C)c(C#N)c2)sc1C(=O)O | 1.02 ± 0.054 | 1.2 ± 0.14
2 | CN(C)c1ccc(C(=C2C=CC(=[N+](C)C)C=C2)c2ccc(N(C)C)cc2)cc1 | 0.8927 ± 0.0022 | 0.931 ± 0.03
3 | COc1ccc(CC2c3cc(OC)c(OC)cc3CC[N+]2(C)CCC(=O)OCCCCCOC(=O)CC[N+]2(C)CCc3cc(OC)c(OC)cc3C2Cc2ccc(OC)c(OC)c2)cc1OC (stereo not drawn) | 1.06 ± 0.067 | 1 ± 0.19
4 | CC(=O)[C@H]1CC[C@H]2[C@@H]3CC=C4C[C@@H](O)CC[C@]4(C)[C@H]3CC[C@]12C | 0.972 ± 0.05 | 1.1 ± 0.053
5 | O=c1ccc2ccccc2o1 | 1.02 ± 0.041 | 1.09 ± 0.062
6 | CN(C)CCCN1c2ccccc2Sc2ccc(Cl)cc21 | 0.953 ± 0.022 | 0.951 ± 0.032
7 | O=c1[nH]cnc2c1ncn2[C@@H]1O[C@H](CO)[C@@H](O)[C@H]1O | 0.917 ± 0.048 | 0.976 ± 0.13
8 | COc1cc([C@@H]2c3cc4c(cc3[C@@H](O[C@@H]3O[C@@H]5CO[C@@H](c6cccs6)O[C@H]5[C@H](O)[C@H]3O)[C@H]3COC(=O)[C@H]23)OCO4)cc(OC)c1O | 1.1 ± 0.049 | 1.016 ± 0.0097
9 | Nc1ccc(S(=O)(=O)Nc2ccccn2)cc1 | 0.976 ± 0.011 | 1.1 ± 0.033
10 | CO[C@H]1C[C@H](O[C@H]2[C@H](C)[C@@H](O[C@@H]3O[C@H](C)C[C@H](N(C)C)[C@H]3O)[C@@H](C)C[C@@]3(CO3)C(=O)[C@H](C)[C@@H](O)[C@@H](C)[C@@H](C)OC(=O)[C@@H]2C)O[C@@H](C)[C@@H]1O | 1.08 ± 0.014 | 1.02 ± 0.057
11 | COc1ccnc(C[S+]([O-])c2nc3cc(OC(F)F)ccc3[nH]2)c1OC (stereo not drawn) | 0.954 ± 0.032 | 0.992 ± 0.061
12 | O=c1[nH]c(=O)c2ccccc2o1 | 0.963 ± 0.026 | 1.02 ± 0.078
13 | Nc1ccn([C@@H]2O[C@H](CO)[C@@H](O)[C@@H]2O)c(=O)n1 | 0.9664 ± 0.0095 | 0.997 ± 0.037
14 | CC(=O)Oc1cccc(C)c1 [meta-CRESYL ACETATE] | 0.91 ± 0.021 | 0.667 ± 0.22
15 | FC(F)(F)COCC(F)(F)F | 0.946 ± 0.09 | 0.9 ± 0.27
16 | CN1Cc2c(N)cccc2C(c2ccccc2)C1 (stereo not drawn) | 1.11 ± 0.062 | 1.36 ± 0.13
17 | CC(C)(O)c1ccccc1CC[C@@H](SCC1(CC(=O)O)CC1)c1cccc(/C=C/c2ccc3ccc(Cl)cc3n2)c1 | 0.989 ± 0.057 | 1.2 ± 0.046
18 | CCN[C@@H]1C[C@H](N)[C@@H](O[C@H]2OC(CN)=CC[C@H]2N)[C@H](O)[C@H]1O[C@H]1OC[C@](C)(O)[C@H](NC)[C@H]1O | 0.986 ± 0.033 | 0.632 ± 0.25
19 | OCc1ccccc1O | 1.07 ± 0.017 | 1.01 ± 0.022
20 | COc1c(N2CCNC(C)C2)c(F)cc2c(=O)c(C(=O)O)cn(C3CC3)c12 (stereo not drawn) | 1.02 ± 0.13 | 0.015 ± 0.0035
21 | O=C(c1ccccc1)c1ccc2n1CCC2C(=O)O (stereo not drawn) | 0.995 ± 0.065 | 1.09 ± 0.34
22 | CN(C)CC(c1ccc(O)cc1)C1(O)CCCCC1 (stereo not drawn) | 0.691 ± 0.059 | 0.688 ± 0.074

Random excerpt: 2 records from the list.
Row | Structure (SMILES) | normalized intracellular growth (time point: T3 (3 h)) | normalized intracellular growth (time point: Tfinal (~6 h))
3 | COc1ccc(CC2c3cc(OC)c(OC)cc3CC[N+]2(C)CCC(=O)OCCCCCOC(=O)CC[N+]2(C)CCc3cc(OC)c(OC)cc3C2Cc2ccc(OC)c(OC)c2)cc1OC (stereo not drawn) | 1.06 ± 0.067 | 1 ± 0.19
2 | CN(C)c1ccc(C(=C2C=CC(=[N+](C)C)C=C2)c2ccc(N(C)C)cc2)cc1 | 0.8927 ± 0.0022 | 0.931 ± 0.03

Later entries

Row | Structure (SMILES) | normalized intracellular growth (time point: T3 (3 h)) | normalized intracellular growth (time point: Tfinal (~6 h))
23 | NC(=O)[C@@H]1CCCN1C(=O)[C@H](Cc1c[nH]cn1)NC(=O)[C@@H]1CCC(=O)N1 | 1.02 ± 0.038 | 0.959 ± 0.044
24 | CO/N=C(\C(=O)N[C@@H]1C(=O)N2C(C(=O)OC(C)OC(C)=O)=C(COC(N)=O)CS[C@H]12)c1ccco1 (stereo partly drawn) | 1.09 ± 0.063 | 0.977 ± 0.23
25 | Nc1ccn([C@@H]2CS[C@H](CO)O2)c(=O)n1 | 0.985 ± 0.021 | 0.972 ± 0.13
26 | Cc1cc(N)c2ccccc2[n+]1CCCCCCCCCC[n+]1c(C)cc(N)c2ccccc21 | 0.978 ± 0.032 | 1.12 ± 0.068
27 | COc1ccccc1OCC(O)COC(N)=O (stereo not drawn) | 1.05 ± 0.018 | 0.806 ± 0.073
28 | CCNC(=O)/C=C/c1cccc(Br)c1 | 1 ± 0.066 | 0.89 ± 0.15
29 | C=CCCCCCCCCC(=O)[O-].C=CCCCCCCCCC(=O)[O-].[Zn+2] | 1 ± 0.048 | 0.832 ± 0.1
30 | COC(=O)Nc1nc2cc([S+]([O-])c3ccccc3)ccc2[nH]1 (stereo not drawn) | 0.933 ± 0.021 | 1.14 ± 0.082
31 | CCN(CC)CCOCCOC(=O)C(CC)(CC)c1ccccc1 | 0.997 ± 0.011 | 0.99 ± 0.1
32 | CCCOc1ccc(C(=O)OCCN(CC)CC)cc1N | 1.01 ± 0.023 | 0.911 ± 0.077
33 | CC(=O)OCC(=O)[C@@]1(OC(C)=O)[C@@H](C)C[C@H]2[C@@H]3C[C@H](F)C4=CC(=O)C=C[C@]4(C)[C@@]3(F)[C@@H](O)C[C@@]21C | 0.984 ± 0.045 | 0.955 ± 0.012
34 | CC[C@@H](CO)NCCN[C@@H](CC)CO | 1.22 ± 0.32 | 1.2 ± 0.2
35 | C[C@]1(Cn2ccnn2)[C@H](C(=O)O)N2C(=O)C[C@H]2S1(=O)=O | 1.1 ± 0.047 | 1.05 ± 0.086
36 | C=CCOC(Cn1ccnc1)c1ccc(Cl)cc1Cl (stereo not drawn) | 0.919 ± 0.028 | 1.02 ± 0.044
37 | CC(=O)OCC(=O)[C@H]1CC[C@H]2[C@@H]3CCC4=CC(=O)CC[C@]4(C)[C@H]3CC[C@]12C | 1.06 ± 0.031 | 0.99 ± 0.08
38 | CC(CN(C)C)CN1c2ccccc2Sc2ccccc21 (stereo not drawn) | 0.801 ± 0.019 | 0.986 ± 0.078
39 | CC1(C)[C@@H](OC(=O)CCC(=O)O)CC[C@]2(C)[C@H]3C(=O)C=C4[C@@H]5C[C@@](C)(C(=O)O)CC[C@]5(C)CC[C@@]4(C)[C@]3(C)CC[C@@H]12 | 1.09 ± 0.057 | 0.837 ± 0.2
40 | N=C(N)NCCN1CCCCCCC1 | 0.941 ± 0.024 | 0.988 ± 0.036
41 | CC(C)CCCC(C)NC(C)C (stereo not drawn) | 1 ± 0.017 | 0.999 ± 0.11
42 | C#C[C@]1(O)CC[C@H]2[C@@H]3CCC4=CC(=O)CC[C@@H]4[C@H]3CC[C@@]21CC | 1.03 ± 0.14 | 1.13 ± 0.12
43 | NC(=O)NS(=O)(=O)c1ccc(N)cc1 | 0.98 ± 0.031 | 0.881 ± 0.095
44 | CC(=O)N(CC(O)CN(C(C)=O)c1c(I)c(C(=O)NCC(O)CO)c(I)c(C(=O)NCC(O)CO)c1I)c1c(I)c(C(=O)NCC(O)CO)c(I)c(C(=O)NCC(O)CO)c1I (stereo not drawn) | 1.04 ± 0.031 | 0.951 ± 0.037

Source: the supplement of paper PMC6331611
